Data published in PMC10866652.
No constants are given. Whether binding was seen depends on the method and setting. Binding seen in cells or lysates may run through a third protein. Some entries that bind do so weakly or less than the wild type. For some of these results: Tags and fused reporters may be left off the sequences shown. Blank lines part the entries; values can stand above or below the molecule they belong to.

Chains of the proteins cited; added tags and fusions are not shown.
UniProt P63044: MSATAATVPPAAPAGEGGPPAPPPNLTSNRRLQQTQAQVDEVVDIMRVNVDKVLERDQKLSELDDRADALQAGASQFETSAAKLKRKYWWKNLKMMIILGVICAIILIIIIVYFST
UniProt Q64332: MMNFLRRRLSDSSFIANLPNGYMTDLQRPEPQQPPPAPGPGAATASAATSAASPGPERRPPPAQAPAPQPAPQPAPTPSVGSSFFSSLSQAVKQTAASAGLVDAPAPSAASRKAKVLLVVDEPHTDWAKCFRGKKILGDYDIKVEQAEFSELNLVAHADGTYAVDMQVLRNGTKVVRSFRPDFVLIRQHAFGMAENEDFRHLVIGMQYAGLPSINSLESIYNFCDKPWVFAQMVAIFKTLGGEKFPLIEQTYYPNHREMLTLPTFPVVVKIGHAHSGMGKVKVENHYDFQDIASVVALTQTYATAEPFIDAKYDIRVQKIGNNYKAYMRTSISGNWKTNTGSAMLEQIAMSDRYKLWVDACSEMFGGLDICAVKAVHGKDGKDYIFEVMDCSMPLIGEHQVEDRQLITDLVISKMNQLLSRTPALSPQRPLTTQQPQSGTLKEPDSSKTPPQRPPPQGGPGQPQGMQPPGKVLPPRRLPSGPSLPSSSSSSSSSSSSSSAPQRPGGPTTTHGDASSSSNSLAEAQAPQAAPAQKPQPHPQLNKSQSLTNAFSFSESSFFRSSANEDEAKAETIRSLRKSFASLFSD

Tests used:
[1] = target: VAMP2 (mouse (endogenous in mouse brain)) (UniProt P63044); test: co-IP; endogenous proteins; presynaptic fraction of amygdala homogenates of mice (legend of Figure 5A: of mPFC homogenates); RIPA buffer, 2 ug antibody overnight, protein A/G agarose; naive, EXT-S and EXT-R mice
Syngr3(fl)-HA (mouse) [2] = target: T1, Syngr3(fl)-HA (mouse) (UniProt Q8R191); test: co-IP; HEK293T cells transfected with EGFP-Syn2a and HA-Syngr3, after 24 h treated for 12 h with P-2A (10 uM) or with FAD, ritonavir, cobicistat or crocin; lysates used for co-IP; precipitating antibody not stated
T1 sequence: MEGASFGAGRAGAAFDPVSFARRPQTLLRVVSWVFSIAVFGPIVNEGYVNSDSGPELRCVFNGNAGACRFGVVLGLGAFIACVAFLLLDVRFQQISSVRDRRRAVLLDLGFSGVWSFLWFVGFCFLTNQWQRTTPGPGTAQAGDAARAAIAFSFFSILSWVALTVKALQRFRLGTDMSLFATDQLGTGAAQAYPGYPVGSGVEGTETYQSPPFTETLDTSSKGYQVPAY

Syngr3(fl)-HA (mouse) [3] = target: T1, Syngr3(fl)-HA (mouse); test: co-IP; HEK293T cells co-expressing Syngr3 mutants and the full length of Syn2a (Supplemental Figure 9, D–I); precipitating antibody not shown
[4] = target: T2, Syngr3 (deletion 133–148)-HA (mouse) (UniProt Q8R191); test: as above
T2 sequence: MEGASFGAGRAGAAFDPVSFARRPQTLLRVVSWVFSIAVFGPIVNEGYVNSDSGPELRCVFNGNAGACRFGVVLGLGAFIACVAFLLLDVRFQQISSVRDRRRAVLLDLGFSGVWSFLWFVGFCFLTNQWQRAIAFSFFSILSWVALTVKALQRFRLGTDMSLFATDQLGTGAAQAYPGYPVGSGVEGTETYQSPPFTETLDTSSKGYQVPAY

Syngr3(fl)-HA (mouse) [5] = target: T1, Syngr3(fl)-HA (mouse); test: co-IP; HEK293T cells transiently co-transfected; lysates precipitated with anti-HA, blotted with anti-HA and anti-EGFP (Figure 6C)
[6] = target: Synapsin 2a (mouse (endogenous in mouse brain)) (UniProt Q64332); test: co-IP; endogenous proteins; mPFC homogenates or lysates of mice (naive, EXT-S and EXT-R, WT and Syn2a-E; injected with P-2A, S-2A, ritonavir or PBS for the VAMP2 precipitations; ritonavir 5 mg/kg or PBS for anti-Syn2a); RIPA buffer, protein A/G agarose
[7] = target: Synapsin 2a (mouse (endogenous in mouse brain)) (UniProt Q64332); test: co-IP; endogenous proteins; presynaptic fraction of amygdala homogenates of mice (legend of Figure 5A: of mPFC homogenates); RIPA buffer, 2 ug antibody overnight, protein A/G agarose; naive, EXT-S and EXT-R mice
[8] = target: Synapsin 2a (mouse (endogenous in mouse brain)) (UniProt Q64332); test: co-IP; mPFC homogenates of WT mice injected intraperitoneally with P-2A or scrambled S-2A (10 mg/kg, one injection a day for 4 days); precipitated with anti-Syn2a

B1: Synaptogyrin-3 (protein, UniProt Q8R191 1-229)
chain: T1 sequence
binding [6]: binds
binding [7]: binds
binding [8]: binds

B2: Ras-related protein Rab3a (protein, UniProt P63011 1-220)
chain: MASATDSRYGQKESSDQNFDYMFKILIIGNSSVGKTSFLFRYADDSFTPAFVSTVGIDFKVKTIYRNDKRIKLQIWDTAGQERYRTITTAYYRGAMGFILMYDITNEESFNAVQDWSTQIKTYSWDNAQVLLVGNKCDMEDERVVSSERGRQLADHLGFEFFEASAKDNINVKQTFERLVDVICEKMSESLDTADPAVTGAKQGPQLTDQQAPPHQDCAC
binding [6]: no binding
binding [7]: no binding

Next, values leading:

binding [1]: no binding
Molecule: Synapsin 2a (from UniProt Q64332 1-586)

binding (Syngr3(fl)-HA (mouse) [2]): binds
binding (Syngr3(fl)-HA (mouse) [3]): binds
binding [4]: binds
binding (Syngr3(fl)-HA (mouse) [5]): binds
Molecule: EGFP-Syn2a (from UniProt Q64332 1-586)
